Experimental data as given in paper PMC8997158.
These are yes or no findings as the source states them, for the method shown. Binding seen in cells or lysates may run through a third protein. Here binding means that the protein was enriched with, or labelled near, the bait; the list need not be complete.

Protein sequences, listed by entry. Tags and fused reporters are not part of them. Lines headed by an entry give the natural chain unless they say otherwise; changes in a name come on top.
UniProt Q13263: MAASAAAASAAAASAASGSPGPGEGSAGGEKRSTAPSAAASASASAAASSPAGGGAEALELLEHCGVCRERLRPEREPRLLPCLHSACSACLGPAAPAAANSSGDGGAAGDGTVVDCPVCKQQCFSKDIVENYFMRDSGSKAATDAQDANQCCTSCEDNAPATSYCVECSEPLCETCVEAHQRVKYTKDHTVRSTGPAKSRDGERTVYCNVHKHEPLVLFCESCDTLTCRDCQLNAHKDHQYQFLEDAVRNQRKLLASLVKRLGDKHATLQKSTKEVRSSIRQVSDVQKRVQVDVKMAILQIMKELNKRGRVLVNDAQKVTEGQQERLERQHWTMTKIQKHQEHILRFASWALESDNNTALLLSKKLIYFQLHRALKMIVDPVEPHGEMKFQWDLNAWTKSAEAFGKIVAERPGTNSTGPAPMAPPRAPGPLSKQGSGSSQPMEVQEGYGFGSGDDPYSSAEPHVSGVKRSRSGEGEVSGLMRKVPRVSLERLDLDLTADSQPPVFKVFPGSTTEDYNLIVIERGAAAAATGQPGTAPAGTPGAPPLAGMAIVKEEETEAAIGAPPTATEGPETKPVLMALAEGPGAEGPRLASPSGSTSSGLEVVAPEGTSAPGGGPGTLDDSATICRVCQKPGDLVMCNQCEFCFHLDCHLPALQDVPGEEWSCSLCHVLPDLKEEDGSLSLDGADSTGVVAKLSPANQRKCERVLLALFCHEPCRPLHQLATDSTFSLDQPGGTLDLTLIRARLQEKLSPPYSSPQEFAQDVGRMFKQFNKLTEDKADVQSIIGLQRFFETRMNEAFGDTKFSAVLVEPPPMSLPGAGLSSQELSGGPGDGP
UniProt Q9HAU4: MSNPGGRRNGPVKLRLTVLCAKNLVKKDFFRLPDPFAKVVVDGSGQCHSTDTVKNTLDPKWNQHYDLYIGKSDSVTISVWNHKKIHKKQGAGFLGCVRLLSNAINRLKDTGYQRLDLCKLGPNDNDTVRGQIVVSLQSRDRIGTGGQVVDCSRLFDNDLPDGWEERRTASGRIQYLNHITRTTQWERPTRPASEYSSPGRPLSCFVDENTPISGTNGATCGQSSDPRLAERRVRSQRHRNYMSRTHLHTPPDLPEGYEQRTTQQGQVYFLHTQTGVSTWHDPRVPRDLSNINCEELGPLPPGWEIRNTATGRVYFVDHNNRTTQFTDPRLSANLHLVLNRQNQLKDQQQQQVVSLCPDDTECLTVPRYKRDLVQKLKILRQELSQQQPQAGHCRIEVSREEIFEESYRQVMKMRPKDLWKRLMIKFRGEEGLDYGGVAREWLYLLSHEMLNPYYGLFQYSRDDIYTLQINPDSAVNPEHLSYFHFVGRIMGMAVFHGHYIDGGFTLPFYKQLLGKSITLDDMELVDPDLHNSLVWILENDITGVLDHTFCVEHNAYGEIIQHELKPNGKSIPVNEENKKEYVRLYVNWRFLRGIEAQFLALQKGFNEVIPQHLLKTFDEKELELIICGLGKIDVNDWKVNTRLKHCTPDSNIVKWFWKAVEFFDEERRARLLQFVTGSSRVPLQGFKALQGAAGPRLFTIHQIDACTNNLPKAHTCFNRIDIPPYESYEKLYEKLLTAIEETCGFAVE

Biological target: N-terminal FLAG-tagged KAP1 (FLAG-KAP1), expressed in HEK-293T cells (UniProt Q13263)
Assay: affinity purification with mass spectrometry; FLAG-KAP1 co-expressed with MYC-SMURF2 (WT or CG) in HEK-293T cells, immunoprecipitated with anti-FLAG resin, eluted with 8 M urea buffer, LC-MS/MS

Row | binding | Substance
1 | binds | MYC-SMURF2 wild-type (SMURF2WT), expressed in HEK-293T cells (from UniProt Q9HAU4 1-748) (enzyme)
2 | binds | MYC-SMURF2CG, catalytically-inactive SMURF2 (C716G), expressed in HEK-293T cells (from UniProt Q9HAU4 1-748) (enzyme)
